Measured values published in article PMC4941282.
No constants are given. Whether binding was seen depends on the method and setting. Binding seen in cells or lysates may run through a third protein. Some binding calls cover weakened binding; strength is not graded here.

The chains behind the UniProt entries cited, without tags or fusion partners.
UniProt P63104: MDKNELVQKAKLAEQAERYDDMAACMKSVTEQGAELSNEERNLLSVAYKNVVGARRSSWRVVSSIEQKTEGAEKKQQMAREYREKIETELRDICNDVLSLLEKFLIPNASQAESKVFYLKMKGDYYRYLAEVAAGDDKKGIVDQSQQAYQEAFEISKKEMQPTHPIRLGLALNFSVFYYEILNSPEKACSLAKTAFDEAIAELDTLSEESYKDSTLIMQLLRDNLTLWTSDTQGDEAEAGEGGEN
UniProt Q16665: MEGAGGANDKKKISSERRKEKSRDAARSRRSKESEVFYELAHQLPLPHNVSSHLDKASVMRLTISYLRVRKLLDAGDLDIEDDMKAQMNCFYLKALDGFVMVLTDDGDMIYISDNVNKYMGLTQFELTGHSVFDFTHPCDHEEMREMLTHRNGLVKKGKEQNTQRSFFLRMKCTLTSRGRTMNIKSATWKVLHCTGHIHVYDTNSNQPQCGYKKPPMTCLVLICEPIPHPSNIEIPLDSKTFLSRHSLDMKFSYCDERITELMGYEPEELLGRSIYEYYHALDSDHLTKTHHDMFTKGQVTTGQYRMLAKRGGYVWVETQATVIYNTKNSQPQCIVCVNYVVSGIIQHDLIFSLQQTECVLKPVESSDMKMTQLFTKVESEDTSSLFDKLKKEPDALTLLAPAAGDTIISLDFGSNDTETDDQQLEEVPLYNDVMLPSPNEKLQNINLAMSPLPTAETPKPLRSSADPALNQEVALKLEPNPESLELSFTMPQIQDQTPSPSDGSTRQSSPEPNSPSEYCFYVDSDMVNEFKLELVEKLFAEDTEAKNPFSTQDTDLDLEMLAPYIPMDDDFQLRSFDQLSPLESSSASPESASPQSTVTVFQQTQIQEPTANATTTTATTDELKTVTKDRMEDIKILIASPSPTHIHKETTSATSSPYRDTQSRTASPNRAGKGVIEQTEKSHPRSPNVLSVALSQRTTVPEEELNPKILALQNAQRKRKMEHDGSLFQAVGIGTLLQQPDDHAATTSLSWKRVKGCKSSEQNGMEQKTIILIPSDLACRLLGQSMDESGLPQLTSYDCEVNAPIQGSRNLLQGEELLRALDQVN

How the values were obtained:
[1] = molecular target: 14-3-3ζ expressed from the pcDNA3 14-3-3ζ plasmid (UniProt P63104); assay: co-IP; lysates of SMMC-7721 and CSQT-2 cells over-expressing 14-3-3ζ or treated with CoCl2; immunoprecipitated with anti-14-3-3ζ antibody, probed with anti-HIF-1α antibody
[2] = molecular target: 14-3-3ζ in CSQT-2 and SMMC-7721 cells for which no transfection is told (human (endogenous in CSQT-2 and SMMC-7721)) (UniProt P63104); assay: as above

binding [1]: binds | binding [2]: binds
Substance: hypoxia-induced factor-1α (from UniProt Q16665 1-826)
